Binding data for two substances are collected here from doi:10.1101/2025.06.20.660715.

Amino acid sequences for entries named in this document (tags omitted).
UniProt P62993: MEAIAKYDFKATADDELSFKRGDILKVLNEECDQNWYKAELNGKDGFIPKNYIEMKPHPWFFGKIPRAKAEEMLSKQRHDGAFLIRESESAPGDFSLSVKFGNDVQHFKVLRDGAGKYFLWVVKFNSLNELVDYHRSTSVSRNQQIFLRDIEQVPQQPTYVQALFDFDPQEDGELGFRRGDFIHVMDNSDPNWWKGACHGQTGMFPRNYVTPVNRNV

This assay addresses T1, mCherry-tagged GAB1 (UniProt Q13480).
T1 sequence: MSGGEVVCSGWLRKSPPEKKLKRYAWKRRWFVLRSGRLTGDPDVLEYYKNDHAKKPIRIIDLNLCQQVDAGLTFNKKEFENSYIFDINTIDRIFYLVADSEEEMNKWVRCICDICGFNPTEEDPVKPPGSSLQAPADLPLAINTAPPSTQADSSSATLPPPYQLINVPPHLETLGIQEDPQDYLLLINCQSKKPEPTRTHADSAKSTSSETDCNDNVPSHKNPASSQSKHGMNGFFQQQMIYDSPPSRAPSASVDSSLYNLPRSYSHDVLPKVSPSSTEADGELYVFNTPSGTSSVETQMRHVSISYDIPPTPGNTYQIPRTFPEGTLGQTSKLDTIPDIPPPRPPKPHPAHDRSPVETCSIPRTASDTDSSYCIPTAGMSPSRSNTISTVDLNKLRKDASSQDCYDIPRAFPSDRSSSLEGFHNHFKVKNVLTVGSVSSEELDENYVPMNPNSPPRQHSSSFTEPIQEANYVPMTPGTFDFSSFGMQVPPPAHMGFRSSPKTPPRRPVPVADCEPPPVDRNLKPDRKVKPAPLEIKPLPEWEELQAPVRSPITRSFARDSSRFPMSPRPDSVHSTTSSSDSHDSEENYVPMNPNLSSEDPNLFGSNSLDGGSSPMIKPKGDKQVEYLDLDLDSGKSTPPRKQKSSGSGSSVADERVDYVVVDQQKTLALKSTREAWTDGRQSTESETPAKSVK
Kind of assay: co-IP.

No constants are given. Whether binding was seen depends on the method and setting. In cells and extracts the contact can be indirect. Some entries that bind do so weakly or less than the wild type. Tags and fused reporters may be left off the sequences shown.

As to “EGFR (from UniProt P00533 25-1210) (receptor)”, the binding entry is “binds”.
Take GRB2 (from UniProt P62993 1-217): the binding result was “binds”.
